# Results published in the supplement of paper PMC8728848.
# The list shows a part of the results.
# Tests used:
# Assay in all cases: glycan array binding signal (z-score within array); higher = stronger binding
# Conditions in all cases: glycan notation: IUPAC condensed, linker removed
# [1] = biological target: Gal(b1-4)GlcNAc(b1-3)Gal(b1-4)GlcNAc(b1-3)Gal(b1-4)GlcNAc(b1-3)Gal(b1-4)GlcNAc(b1-2)Man(a1-3)[Gal(b1-4)GlcNAc(b1-3)Gal(b1-4)GlcNAc(b1-3)Gal(b1-4)GlcNAc(b1-3)Gal(b1-4)GlcNAc(b1-2)Man(a1-6)]Man(b1-4)GlcNAc(b1-4)GlcNAc
# Summary of the method: (§1)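 The binding signal is a Z-score computed within each array and averaged over linkers. Arrays of the same protein sequence at different concentrations or buffers were also averaged together. Data originate from 3228 arrays in the Consortium for Functional Glycomics database, kept only where the protein sequence was available.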
# [2] = biological target: Gal(b1-4)GlcNAc(b1-3)Gal(b1-4)GlcNAc(b1-3)Gal(b1-4)GlcNAc(b1-3)Gal(b1-4)GlcNAc(b1-2)Man(a1-3)[Gal(b1-4)GlcNAc(b1-3)Gal(b1-4)GlcNAc(b1-3)Gal(b1-4)GlcNAc(b1-3)Gal(b1-4)GlcNAc(b1-2)Man(a1-6)]Man(b1-4)GlcNAc(b1-4)[Fuc(a1-6)]GlcNAc
# Summary of the method: as §1
# [3] = biological target: Gal(b1-4)GlcNAc(b1-3)Gal(b1-4)GlcNAc(b1-3)Gal(b1-4)GlcNAc(b1-3)Gal(b1-4)GlcNAc(b1-2)[Gal(b1-4)GlcNAc(b1-3)Gal(b1-4)GlcNAc(b1-3)Gal(b1-4)GlcNAc(b1-3)Gal(b1-4)GlcNAc(b1-6)]Man(a1-6)[Gal(b1-4)GlcNAc(b1-3)Gal(b1-4)GlcNAc(b1-3)Gal(b1-4)GlcNAc(b1-3)Gal(b1-4)GlcNAc(b1-2)Man(a1-3)]Man(b1-4)GlcNAc(b1-4)[Fuc(a1-6)]GlcNAc
# Summary of the method: as §1
# [4] = biological target: Gal(b1-4)GlcNAc(b1-3)Gal(b1-4)GlcNAc(b1-3)Gal(b1-4)GlcNAc(b1-3)Gal(b1-4)GlcNAc(b1-3)Gal(b1-4)GlcNAc(b1-2)Man(a1-3)[Gal(b1-4)GlcNAc(b1-3)Gal(b1-4)GlcNAc(b1-3)Gal(b1-4)GlcNAc(b1-3)Gal(b1-4)GlcNAc(b1-3)Gal(b1-4)GlcNAc(b1-2)Man(a1-6)]Man(b1-4)GlcNAc(b1-4)GlcNAc
# Summary of the method: as §1
# [5] = biological target: Gal(b1-4)GlcNAc(b1-3)Gal(b1-4)GlcNAc(b1-3)Gal(b1-4)GlcNAc(b1-3)Gal(b1-4)GlcNAc(b1-3)Gal(b1-4)GlcNAc(b1-2)Man(a1-3)[Gal(b1-4)GlcNAc(b1-3)Gal(b1-4)GlcNAc(b1-3)Gal(b1-4)GlcNAc(b1-3)Gal(b1-4)GlcNAc(b1-3)Gal(b1-4)GlcNAc(b1-2)Man(a1-6)]Man(b1-4)GlcNAc(b1-4)[Fuc(a1-6)]GlcNAc
# Summary of the method: as §1
# [6] = biological target: Gal(b1-4)GlcNAc(b1-3)Gal(b1-4)GlcNAc(b1-3)Gal(b1-4)GlcNAc(b1-3)Gal(b1-4)GlcNAc(b1-3)Gal(b1-4)GlcNAc(b1-2)[Gal(b1-4)GlcNAc(b1-3)Gal(b1-4)GlcNAc(b1-3)Gal(b1-4)GlcNAc(b1-3)Gal(b1-4)GlcNAc(b1-3)Gal(b1-4)GlcNAc(b1-6)]Man(a1-6)[Gal(b1-4)GlcNAc(b1-3)Gal(b1-4)GlcNAc(b1-3)Gal(b1-4)GlcNAc(b1-3)Gal(b1-4)GlcNAc(b1-3)Gal(b1-4)GlcNAc(b1-2)Man(a1-3)]Man(b1-4)GlcNAc(b1-4)[Fuc(a1-6)]GlcNAc
# Summary of the method: as §1
# [7] = biological target: Gal(b1-4)GlcNAc(b1-3)Gal(b1-4)GlcNAc(b1-3)Gal(b1-4)GlcNAc(b1-3)Gal(b1-4)GlcNAc(b1-3)Gal(b1-4)GlcNAc(b1-3)Gal(b1-4)GlcNAc(b1-2)Man(a1-3)[Gal(b1-4)GlcNAc(b1-3)Gal(b1-4)GlcNAc(b1-3)Gal(b1-4)GlcNAc(b1-3)Gal(b1-4)GlcNAc(b1-3)Gal(b1-4)GlcNAc(b1-3)Gal(b1-4)GlcNAc(b1-2)Man(a1-6)]Man(b1-4)GlcNAc(b1-4)GlcNAc
# Summary of the method: as §1
# [8] = biological target: Gal(b1-4)GlcNAc(b1-3)Gal(b1-4)GlcNAc(b1-3)GalNAc
# Summary of the method: as §1
# [9] = biological target: Gal(b1-4)GlcNAc(b1-3)Gal(b1-4)GlcNAc(b1-3)[Gal(b1-4)GlcNAc(b1-3)Gal(b1-4)GlcNAc(b1-6)]GalNAc
# Summary of the method: as §1
# [10] = biological target: Gal(b1-4)GlcNAc(b1-3)Gal(b1-4)GlcNAc(b1-6)[Gal(b1-3)]GalNAc
# Summary of the method: as §1
# [11] = biological target: Gal(b1-4)GlcNAc(b1-3)Gal(b1-4)[Fuc(a1-3)GlcNAc(b1-6)]Gal(b1-4)Glc
# Summary of the method: as §1
# [12] = biological target: Gal(b1-4)GlcNAc(b1-3)Gal(b1-4)[Fuc(a1-3)]GlcNAc(b1-3)Gal(b1-4)[Fuc(a1-3)]GlcNAc
# Summary of the method: as §1
# [13] = biological target: Gal(b1-4)GlcNAc(b1-3)GalNAc
# Summary of the method: as §1
# [14] = biological target: Gal(b1-4)GlcNAc(b1-3)[Fuc(a1-3)GlcNAc(b1-6)]Gal(b1-4)Glc
# Summary of the method: as §1
# [15] = biological target: Gal(b1-4)GlcNAc(b1-3)[Gal(b1-4)GlcNAc(b1-6)]Gal(b1-4)GlcNAc
# Summary of the method: as §1
# [16] = biological target: Gal(b1-4)GlcNAc(b1-3)[Gal(b1-4)GlcNAc(b1-6)]GalNAc
# Summary of the method: as §1
# [17] = biological target: Gal(b1-4)GlcNAc(b1-3)[GlcNAc(b1-6)]Gal(b1-4)GlcNAc
# Summary of the method: as §1
# [18] = biological target: Gal(b1-4)GlcNAc(b1-6)Gal(b1-4)GlcNAc
# Summary of the method: as §1
# [19] = biological target: Gal(b1-4)GlcNAc(b1-6)GalNAc
# Summary of the method: as §1
# [20] = biological target: Gal(b1-4)GlcNAc(b1-6)[Gal(b1-3)]GalNAc
# Summary of the method: as §1
# [21] = biological target: Gal(b1-4)GlcNAc(b1-6)[Gal(b1-4)GlcNAc(b1-3)]GalNAc
# Summary of the method: as §1
# [22] = biological target: Gal(b1-4)GlcNAc6P
# Summary of the method: as §1
# [23] = biological target: Gal(b1-6)Gal
# Summary of the method: as §1
# [24] = biological target: Gal3S(b1-3)GalNAc
# Summary of the method: as §1
# [25] = biological target: Gal3S(b1-3)GlcNAc
# Summary of the method: as §1
# [26] = biological target: Gal3S(b1-3)[Fuc(a1-4)]GlcNAc
# Summary of the method: as §1
# [27] = biological target: Gal3S(b1-4)Glc
# Summary of the method: as §1
# [28] = biological target: Gal3S(b1-4)Glc6S
# Summary of the method: as §1
# [29] = biological target: Gal3S(b1-4)GlcNAc
# Summary of the method: as §1
# [30] = biological target: Gal3S(b1-4)GlcNAc6S
# Summary of the method: as §1
# [31] = biological target: Gal3S(b1-4)[Fuc(a1-3)]Glc
# Summary of the method: as §1
# [32] = biological target: Gal3S(b1-4)[Fuc(a1-3)]Glc6S
# Summary of the method: as §1
# [33] = biological target: Gal3S(b1-4)[Fuc(a1-3)]GlcNAc
# Summary of the method: as §1
# [34] = biological target: Gal3S(b1-4)[Fuc(a1-3)]GlcNAc6S
# Summary of the method: as §1
# [35] = biological target: Gal3S4S(b1-4)GlcNAc
# Summary of the method: as §1
# [36] = biological target: Gal3S6S(b1-4)GlcNAc
# Summary of the method: as §1
# [37] = biological target: Gal3S6S(b1-4)GlcNAc6S
# Summary of the method: as §1
# [38] = biological target: Gal4S(b1-4)GlcNAc
# Summary of the method: as §1
binder,measurement,setting,value
"LlpA1 (Pseudomonas fluorescens), Q4KHC3 (protein) MGSSHHHHHHSSGLVPRGSHMAWIRYDFTDNGSSVLPARYYMAPNQYLQSPNKRFKLLFQADGNLALYDGAQLAWVADQNTPFTNVSKGNKKDPMMVFMNYGFVLDDPLRGRIWSTTPSDPTMGSREDASLRAFTQVQDDGNIVTVDTIPHWYAPNGRVFTPAVGAAMIIGGTTELVPGQFYSAGEHSLVFQGDGNLVVYGPNSSVIWATYTQNKGGVRCVMQEDGNLVIYAANNGVVWQSGTGGHPGATIRLQANGSFTIVTERPVWARFGYTPTIKPPRVFYPDHKWKTGSYTWNNVF",glycan array binding signal (z-score),[1],0.38
same,glycan array binding signal (z-score),[2],1.12
same,glycan array binding signal (z-score),[3],0.651
same,glycan array binding signal (z-score),[4],2.15
same,glycan array binding signal (z-score),[5],0.464
same,glycan array binding signal (z-score),[6],0.379
same,glycan array binding signal (z-score),[7],2.19
same,glycan array binding signal (z-score),[8],0.115
same,glycan array binding signal (z-score),[9],2.36
same,glycan array binding signal (z-score),[10],0.513
same,glycan array binding signal (z-score),[11],-1.22
same,glycan array binding signal (z-score),[12],-0.77
same,glycan array binding signal (z-score),[13],-0.927
same,glycan array binding signal (z-score),[14],0.792
same,glycan array binding signal (z-score),[15],1.07
same,glycan array binding signal (z-score),[16],-0.666
same,glycan array binding signal (z-score),[17],-0.626
same,glycan array binding signal (z-score),[18],-0.35
same,glycan array binding signal (z-score),[19],0.034
same,glycan array binding signal (z-score),[20],-0.144
same,glycan array binding signal (z-score),[21],0.09
same,glycan array binding signal (z-score),[22],0.521
same,glycan array binding signal (z-score),[23],0.188
same,glycan array binding signal (z-score),[24],-0.814
same,glycan array binding signal (z-score),[25],-0.198
same,glycan array binding signal (z-score),[26],-0.125
same,glycan array binding signal (z-score),[27],-0.397
same,glycan array binding signal (z-score),[28],-0.494
same,glycan array binding signal (z-score),[29],-0.033
same,glycan array binding signal (z-score),[30],-0.806
same,glycan array binding signal (z-score),[31],-0.518
same,glycan array binding signal (z-score),[32],0.321
same,glycan array binding signal (z-score),[33],-0.22
same,glycan array binding signal (z-score),[34],1.43
same,glycan array binding signal (z-score),[35],-0.125
same,glycan array binding signal (z-score),[36],0.103
same,glycan array binding signal (z-score),[37],0.576
same,glycan array binding signal (z-score),[38],0.315

# Quoted from the entries so far for reference:
binder,measurement,setting,value
"LlpA1 (Pseudomonas fluorescens), Q4KHC3 (protein) MGSSHHHHHHSSGLVPRGSHMAWIRYDFTDNGSSVLPARYYMAPNQYLQSPNKRFKLLFQADGNLALYDGAQLAWVADQNTPFTNVSKGNKKDPMMVFMNYGFVLDDPLRGRIWSTTPSDPTMGSREDASLRAFTQVQDDGNIVTVDTIPHWYAPNGRVFTPAVGAAMIIGGTTELVPGQFYSAGEHSLVFQGDGNLVVYGPNSSVIWATYTQNKGGVRCVMQEDGNLVIYAANNGVVWQSGTGGHPGATIRLQANGSFTIVTERPVWARFGYTPTIKPPRVFYPDHKWKTGSYTWNNVF",glycan array binding signal (z-score),[22],0.521
same,glycan array binding signal (z-score),[23],0.188
same,glycan array binding signal (z-score),[24],-0.814
